These are yes or no findings as the source states them, for the method shown. In cells and extracts the contact can be indirect. Binding can be weak; no strength is given.
Molecular target: GST-LOXL1 full length (FL), wild type (human (LOXL1 cloned from LN18 cDNA)) (UniProt Q08397)
Experiment: pull-down; GST pull-down: GST-LOXL1 constructs incubated with His-BAG2 constructs; called a direct interaction (Fig. 4c, 4d, 4f)

By UniProt entry, the sequences of proteins in these tests, tags left out. Where a name states a change or a piece, a line headed by the entry shows the natural chain unless it says otherwise.
UniProt Q08397: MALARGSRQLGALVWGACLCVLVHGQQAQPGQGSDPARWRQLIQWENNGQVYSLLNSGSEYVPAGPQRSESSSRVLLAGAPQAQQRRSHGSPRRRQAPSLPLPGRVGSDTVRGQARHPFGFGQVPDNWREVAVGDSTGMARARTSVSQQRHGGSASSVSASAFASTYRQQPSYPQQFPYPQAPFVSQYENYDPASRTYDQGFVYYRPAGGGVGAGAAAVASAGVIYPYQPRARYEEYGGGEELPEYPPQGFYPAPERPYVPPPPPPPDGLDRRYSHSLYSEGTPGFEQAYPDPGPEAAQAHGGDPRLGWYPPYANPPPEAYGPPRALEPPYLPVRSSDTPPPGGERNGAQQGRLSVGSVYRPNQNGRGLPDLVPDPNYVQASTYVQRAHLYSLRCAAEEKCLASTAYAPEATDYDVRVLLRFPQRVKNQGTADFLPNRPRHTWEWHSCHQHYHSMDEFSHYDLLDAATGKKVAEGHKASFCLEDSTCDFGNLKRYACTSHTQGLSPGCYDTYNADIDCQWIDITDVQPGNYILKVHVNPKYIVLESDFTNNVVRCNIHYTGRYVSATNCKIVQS
UniProt O95816: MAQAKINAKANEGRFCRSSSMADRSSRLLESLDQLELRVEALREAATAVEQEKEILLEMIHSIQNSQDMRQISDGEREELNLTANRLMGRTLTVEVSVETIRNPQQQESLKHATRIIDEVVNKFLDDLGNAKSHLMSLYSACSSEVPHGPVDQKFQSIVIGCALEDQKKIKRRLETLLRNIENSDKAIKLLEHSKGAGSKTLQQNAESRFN

binding: binds
Substance: His-BAG2 full length (FL) (from UniProt O95816 1-211)

Source: publication PMC7557908
